No constants are given. Whether binding was seen depends on the method and setting. Binding seen in cells or lysates may run through a third protein. For part of these data: A result given as binding can be weak or reduced; the word gives no strength. For part of these data: Sequences can lack the tags named with a protein. One block for each molecule: values may come before it.
Legend:
[1] = target: T1, p120/σ-catenin (endogenous, mouse) (mouse (endogenous in sciatic nerve and Schwann cells)) (UniProt P30999); assay: co-IP; endogenous proteins in sciatic nerve lysates of Pmp22+/+ mice (P10, P15, 3 and 6 months old, by panel); IP with anti-E-cadherin, anti-p120/σ-catenin or anti-β-catenin antibody, control IgG; overnight at 4°C, protein G agarose beads; immunoblot
T1 sequence: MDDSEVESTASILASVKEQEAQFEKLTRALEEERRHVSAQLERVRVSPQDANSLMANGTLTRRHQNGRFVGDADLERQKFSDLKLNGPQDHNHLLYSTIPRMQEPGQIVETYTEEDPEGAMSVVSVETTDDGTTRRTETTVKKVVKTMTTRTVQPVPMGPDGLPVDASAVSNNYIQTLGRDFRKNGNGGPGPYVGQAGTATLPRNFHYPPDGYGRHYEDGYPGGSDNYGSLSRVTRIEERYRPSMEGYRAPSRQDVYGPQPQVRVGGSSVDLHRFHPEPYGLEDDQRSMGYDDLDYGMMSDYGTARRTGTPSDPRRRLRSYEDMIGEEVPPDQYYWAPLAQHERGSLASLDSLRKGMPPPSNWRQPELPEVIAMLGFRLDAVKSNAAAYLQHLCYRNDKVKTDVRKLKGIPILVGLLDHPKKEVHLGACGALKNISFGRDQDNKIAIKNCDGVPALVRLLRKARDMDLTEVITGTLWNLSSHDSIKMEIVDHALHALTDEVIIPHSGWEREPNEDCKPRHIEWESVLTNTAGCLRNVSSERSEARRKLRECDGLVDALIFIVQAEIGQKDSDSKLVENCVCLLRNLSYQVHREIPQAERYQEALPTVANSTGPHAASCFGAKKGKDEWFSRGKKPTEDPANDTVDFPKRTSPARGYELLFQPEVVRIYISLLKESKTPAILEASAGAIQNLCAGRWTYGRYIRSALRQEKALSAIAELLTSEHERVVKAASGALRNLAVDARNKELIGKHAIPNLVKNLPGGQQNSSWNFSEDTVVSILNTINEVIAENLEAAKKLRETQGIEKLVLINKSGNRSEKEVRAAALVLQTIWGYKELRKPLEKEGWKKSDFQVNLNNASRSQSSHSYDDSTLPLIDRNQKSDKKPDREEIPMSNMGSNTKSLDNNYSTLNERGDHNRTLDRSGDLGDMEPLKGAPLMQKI

The chains behind the UniProt entries cited, without tags or fusion partners. Where a name states a change or a piece, a line headed by the entry shows the natural chain unless it says otherwise.
UniProt P12830: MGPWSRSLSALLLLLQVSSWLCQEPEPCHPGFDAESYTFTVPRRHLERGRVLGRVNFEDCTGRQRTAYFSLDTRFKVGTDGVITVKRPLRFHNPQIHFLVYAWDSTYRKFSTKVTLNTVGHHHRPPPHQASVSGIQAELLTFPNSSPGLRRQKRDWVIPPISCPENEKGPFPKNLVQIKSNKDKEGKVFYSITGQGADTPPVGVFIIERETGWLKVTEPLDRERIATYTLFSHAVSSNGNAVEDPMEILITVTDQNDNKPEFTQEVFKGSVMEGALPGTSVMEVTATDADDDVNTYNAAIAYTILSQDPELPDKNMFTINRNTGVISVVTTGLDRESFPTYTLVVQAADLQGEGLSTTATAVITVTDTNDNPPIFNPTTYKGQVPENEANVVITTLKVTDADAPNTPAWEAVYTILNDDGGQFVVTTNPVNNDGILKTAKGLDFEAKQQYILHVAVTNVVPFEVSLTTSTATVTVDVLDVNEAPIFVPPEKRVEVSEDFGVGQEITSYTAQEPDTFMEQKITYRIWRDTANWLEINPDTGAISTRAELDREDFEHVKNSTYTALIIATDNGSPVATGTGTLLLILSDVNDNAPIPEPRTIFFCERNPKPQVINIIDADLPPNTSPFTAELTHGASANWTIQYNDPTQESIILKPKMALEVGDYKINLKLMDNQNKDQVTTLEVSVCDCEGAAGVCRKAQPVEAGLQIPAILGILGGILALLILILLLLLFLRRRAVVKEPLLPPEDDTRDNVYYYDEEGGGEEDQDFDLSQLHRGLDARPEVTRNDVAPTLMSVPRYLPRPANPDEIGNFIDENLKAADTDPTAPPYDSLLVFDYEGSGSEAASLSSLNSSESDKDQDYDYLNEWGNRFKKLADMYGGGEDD

[2] = target: GFP-tagged E-cadherin mutant E+T (intracellular domain deleted) (UniProt P12830); assay: co-IP; HA-tagged PMP22 co-expressed with GFP-tagged E-cadherin or its mutants in HEK293a cells; lysates immunoprecipitated and blotted with GFP or HA antibodies; primary antibody overnight at 4°C, protein G agarose beads
[3] = target: GFP-tagged wild-type E-cadherin (UniProt P12830); assay: as above
[4] = target: E-cadherin (endogenous, mouse) (mouse (endogenous in sciatic nerve and Schwann cells)); assay: co-IP; endogenous proteins in sciatic nerve lysates of 3-month-old (adult) Pmp22+/+ mice; IP with anti-E-cadherin antibody, blot with anti-PMP22
[5] = target: E-cadherin (endogenous, mouse) (mouse (endogenous in sciatic nerve and Schwann cells)); assay: co-IP; endogenous proteins in sciatic nerve lysates of Pmp22+/+ mice (P10, P15, 3 and 6 months old, by panel); IP with anti-E-cadherin, anti-p120/σ-catenin or anti-β-catenin antibody, control IgG; overnight at 4°C, protein G agarose beads; immunoblot

B1: Human HA-tagged PMP22 (protein, UniProt Q01453 1-160)
chain: MLLLLLSIIVLHVAVLVLLFVSTIVSQWIVGNGHATDLWQNCSTSSSGNVHHCFSSSPNEWLQSVQATMILSIIFSILSLFLFFCQLFTLTKGGRFYITGIFQILAGLCVMSAAAIYTVRHPEWHLNSDYSYGFAYILAWVAFPLALLSGVIYVILRKRE
- binding [2]: binds
- binding [3]: binds

B3: p120/σ-catenin (endogenous, mouse) (protein, UniProt P30999 1-938)
chain: MDDSEVESTASILASVKEQEAQFEKLTRALEEERRHVSAQLERVRVSPQDANSLMANGTLTRRHQNGRFVGDADLERQKFSDLKLNGPQDHNHLLYSTIPRMQEPGQIVETYTEEDPEGAMSVVSVETTDDGTTRRTETTVKKVVKTMTTRTVQPVPMGPDGLPVDASAVSNNYIQTLGRDFRKNGNGGPGPYVGQAGTATLPRNFHYPPDGYGRHYEDGYPGGSDNYGSLSRVTRIEERYRPSMEGYRAPSRQDVYGPQPQVRVGGSSVDLHRFHPEPYGLEDDQRSMGYDDLDYGMMSDYGTARRTGTPSDPRRRLRSYEDMIGEEVPPDQYYWAPLAQHERGSLASLDSLRKGMPPPSNWRQPELPEVIAMLGFRLDAVKSNAAAYLQHLCYRNDKVKTDVRKLKGIPILVGLLDHPKKEVHLGACGALKNISFGRDQDNKIAIKNCDGVPALVRLLRKARDMDLTEVITGTLWNLSSHDSIKMEIVDHALHALTDEVIIPHSGWEREPNEDCKPRHIEWESVLTNTAGCLRNVSSERSEARRKLRECDGLVDALIFIVQAEIGQKDSDSKLVENCVCLLRNLSYQVHREIPQAERYQEALPTVANSTGPHAASCFGAKKGKDEWFSRGKKPTEDPANDTVDFPKRTSPARGYELLFQPEVVRIYISLLKESKTPAILEASAGAIQNLCAGRWTYGRYIRSALRQEKALSAIAELLTSEHERVVKAASGALRNLAVDARNKELIGKHAIPNLVKNLPGGQQNSSWNFSEDTVVSILNTINEVIAENLEAAKKLRETQGIEKLVLINKSGNRSEKEVRAAALVLQTIWGYKELRKPLEKEGWKKSDFQVNLNNASRSQSSHSYDDSTLPLIDRNQKSDKKPDREEIPMSNMGSNTKSLDNNYSTLNERGDHNRTLDRSGDLGDMEPLKGAPLMQKI
- binding [5]: binds

The next lines start with results.

- binding [1]: binds
Molecule: E-cadherin (endogenous, mouse)

- binding [5]: binds
B2: PMP22 (endogenous, mouse sciatic nerve) (protein, UniProt P16646 1-161)
chain: MLLLLLGILFLHIAVLVLLFVSTIVSQWLVGNGHTTDLWQNCTTSALGAVQHCYSSSVSEWLQSVQATMILSVIFSVLALFLFFCQLFTLTKGGRFYITGFFQILAGLCVMSAAAIYTVRHSEWHVNTDYSYGFAYILAWVAFPLALLSGIIYVILRKREL
- binding [4]: no binding (only in 3-month-old (adult) nerves)

From publication PMC5008806
